Assay [1] has as its target MUC2 mucin (Mucin-2) (human (endogenous in LS174T)) (UniProt Q02817). Kind of assay: SEC; Sepharose 4B column chromatography of native secreted mucus from LS174T spent culture media (Tris-HCl buffer, pH 8.0, 4 °C); fractions (V0, F1-F3) run on SDS-PAGE under reducing and non-reducing conditions and Western-blotted for FCGBP, glycosylated MUC2 and CLCA1.
The target of assay [2] is IgGFc-binding protein (FCGBP) (human (endogenous in LS174T)) (UniProt Q9Y6R7). Described as above.

Amino acid sequences for entries named in this document (tags omitted). Residues count along the entry.
UniProt Q9Y6R7, residues 24-5405: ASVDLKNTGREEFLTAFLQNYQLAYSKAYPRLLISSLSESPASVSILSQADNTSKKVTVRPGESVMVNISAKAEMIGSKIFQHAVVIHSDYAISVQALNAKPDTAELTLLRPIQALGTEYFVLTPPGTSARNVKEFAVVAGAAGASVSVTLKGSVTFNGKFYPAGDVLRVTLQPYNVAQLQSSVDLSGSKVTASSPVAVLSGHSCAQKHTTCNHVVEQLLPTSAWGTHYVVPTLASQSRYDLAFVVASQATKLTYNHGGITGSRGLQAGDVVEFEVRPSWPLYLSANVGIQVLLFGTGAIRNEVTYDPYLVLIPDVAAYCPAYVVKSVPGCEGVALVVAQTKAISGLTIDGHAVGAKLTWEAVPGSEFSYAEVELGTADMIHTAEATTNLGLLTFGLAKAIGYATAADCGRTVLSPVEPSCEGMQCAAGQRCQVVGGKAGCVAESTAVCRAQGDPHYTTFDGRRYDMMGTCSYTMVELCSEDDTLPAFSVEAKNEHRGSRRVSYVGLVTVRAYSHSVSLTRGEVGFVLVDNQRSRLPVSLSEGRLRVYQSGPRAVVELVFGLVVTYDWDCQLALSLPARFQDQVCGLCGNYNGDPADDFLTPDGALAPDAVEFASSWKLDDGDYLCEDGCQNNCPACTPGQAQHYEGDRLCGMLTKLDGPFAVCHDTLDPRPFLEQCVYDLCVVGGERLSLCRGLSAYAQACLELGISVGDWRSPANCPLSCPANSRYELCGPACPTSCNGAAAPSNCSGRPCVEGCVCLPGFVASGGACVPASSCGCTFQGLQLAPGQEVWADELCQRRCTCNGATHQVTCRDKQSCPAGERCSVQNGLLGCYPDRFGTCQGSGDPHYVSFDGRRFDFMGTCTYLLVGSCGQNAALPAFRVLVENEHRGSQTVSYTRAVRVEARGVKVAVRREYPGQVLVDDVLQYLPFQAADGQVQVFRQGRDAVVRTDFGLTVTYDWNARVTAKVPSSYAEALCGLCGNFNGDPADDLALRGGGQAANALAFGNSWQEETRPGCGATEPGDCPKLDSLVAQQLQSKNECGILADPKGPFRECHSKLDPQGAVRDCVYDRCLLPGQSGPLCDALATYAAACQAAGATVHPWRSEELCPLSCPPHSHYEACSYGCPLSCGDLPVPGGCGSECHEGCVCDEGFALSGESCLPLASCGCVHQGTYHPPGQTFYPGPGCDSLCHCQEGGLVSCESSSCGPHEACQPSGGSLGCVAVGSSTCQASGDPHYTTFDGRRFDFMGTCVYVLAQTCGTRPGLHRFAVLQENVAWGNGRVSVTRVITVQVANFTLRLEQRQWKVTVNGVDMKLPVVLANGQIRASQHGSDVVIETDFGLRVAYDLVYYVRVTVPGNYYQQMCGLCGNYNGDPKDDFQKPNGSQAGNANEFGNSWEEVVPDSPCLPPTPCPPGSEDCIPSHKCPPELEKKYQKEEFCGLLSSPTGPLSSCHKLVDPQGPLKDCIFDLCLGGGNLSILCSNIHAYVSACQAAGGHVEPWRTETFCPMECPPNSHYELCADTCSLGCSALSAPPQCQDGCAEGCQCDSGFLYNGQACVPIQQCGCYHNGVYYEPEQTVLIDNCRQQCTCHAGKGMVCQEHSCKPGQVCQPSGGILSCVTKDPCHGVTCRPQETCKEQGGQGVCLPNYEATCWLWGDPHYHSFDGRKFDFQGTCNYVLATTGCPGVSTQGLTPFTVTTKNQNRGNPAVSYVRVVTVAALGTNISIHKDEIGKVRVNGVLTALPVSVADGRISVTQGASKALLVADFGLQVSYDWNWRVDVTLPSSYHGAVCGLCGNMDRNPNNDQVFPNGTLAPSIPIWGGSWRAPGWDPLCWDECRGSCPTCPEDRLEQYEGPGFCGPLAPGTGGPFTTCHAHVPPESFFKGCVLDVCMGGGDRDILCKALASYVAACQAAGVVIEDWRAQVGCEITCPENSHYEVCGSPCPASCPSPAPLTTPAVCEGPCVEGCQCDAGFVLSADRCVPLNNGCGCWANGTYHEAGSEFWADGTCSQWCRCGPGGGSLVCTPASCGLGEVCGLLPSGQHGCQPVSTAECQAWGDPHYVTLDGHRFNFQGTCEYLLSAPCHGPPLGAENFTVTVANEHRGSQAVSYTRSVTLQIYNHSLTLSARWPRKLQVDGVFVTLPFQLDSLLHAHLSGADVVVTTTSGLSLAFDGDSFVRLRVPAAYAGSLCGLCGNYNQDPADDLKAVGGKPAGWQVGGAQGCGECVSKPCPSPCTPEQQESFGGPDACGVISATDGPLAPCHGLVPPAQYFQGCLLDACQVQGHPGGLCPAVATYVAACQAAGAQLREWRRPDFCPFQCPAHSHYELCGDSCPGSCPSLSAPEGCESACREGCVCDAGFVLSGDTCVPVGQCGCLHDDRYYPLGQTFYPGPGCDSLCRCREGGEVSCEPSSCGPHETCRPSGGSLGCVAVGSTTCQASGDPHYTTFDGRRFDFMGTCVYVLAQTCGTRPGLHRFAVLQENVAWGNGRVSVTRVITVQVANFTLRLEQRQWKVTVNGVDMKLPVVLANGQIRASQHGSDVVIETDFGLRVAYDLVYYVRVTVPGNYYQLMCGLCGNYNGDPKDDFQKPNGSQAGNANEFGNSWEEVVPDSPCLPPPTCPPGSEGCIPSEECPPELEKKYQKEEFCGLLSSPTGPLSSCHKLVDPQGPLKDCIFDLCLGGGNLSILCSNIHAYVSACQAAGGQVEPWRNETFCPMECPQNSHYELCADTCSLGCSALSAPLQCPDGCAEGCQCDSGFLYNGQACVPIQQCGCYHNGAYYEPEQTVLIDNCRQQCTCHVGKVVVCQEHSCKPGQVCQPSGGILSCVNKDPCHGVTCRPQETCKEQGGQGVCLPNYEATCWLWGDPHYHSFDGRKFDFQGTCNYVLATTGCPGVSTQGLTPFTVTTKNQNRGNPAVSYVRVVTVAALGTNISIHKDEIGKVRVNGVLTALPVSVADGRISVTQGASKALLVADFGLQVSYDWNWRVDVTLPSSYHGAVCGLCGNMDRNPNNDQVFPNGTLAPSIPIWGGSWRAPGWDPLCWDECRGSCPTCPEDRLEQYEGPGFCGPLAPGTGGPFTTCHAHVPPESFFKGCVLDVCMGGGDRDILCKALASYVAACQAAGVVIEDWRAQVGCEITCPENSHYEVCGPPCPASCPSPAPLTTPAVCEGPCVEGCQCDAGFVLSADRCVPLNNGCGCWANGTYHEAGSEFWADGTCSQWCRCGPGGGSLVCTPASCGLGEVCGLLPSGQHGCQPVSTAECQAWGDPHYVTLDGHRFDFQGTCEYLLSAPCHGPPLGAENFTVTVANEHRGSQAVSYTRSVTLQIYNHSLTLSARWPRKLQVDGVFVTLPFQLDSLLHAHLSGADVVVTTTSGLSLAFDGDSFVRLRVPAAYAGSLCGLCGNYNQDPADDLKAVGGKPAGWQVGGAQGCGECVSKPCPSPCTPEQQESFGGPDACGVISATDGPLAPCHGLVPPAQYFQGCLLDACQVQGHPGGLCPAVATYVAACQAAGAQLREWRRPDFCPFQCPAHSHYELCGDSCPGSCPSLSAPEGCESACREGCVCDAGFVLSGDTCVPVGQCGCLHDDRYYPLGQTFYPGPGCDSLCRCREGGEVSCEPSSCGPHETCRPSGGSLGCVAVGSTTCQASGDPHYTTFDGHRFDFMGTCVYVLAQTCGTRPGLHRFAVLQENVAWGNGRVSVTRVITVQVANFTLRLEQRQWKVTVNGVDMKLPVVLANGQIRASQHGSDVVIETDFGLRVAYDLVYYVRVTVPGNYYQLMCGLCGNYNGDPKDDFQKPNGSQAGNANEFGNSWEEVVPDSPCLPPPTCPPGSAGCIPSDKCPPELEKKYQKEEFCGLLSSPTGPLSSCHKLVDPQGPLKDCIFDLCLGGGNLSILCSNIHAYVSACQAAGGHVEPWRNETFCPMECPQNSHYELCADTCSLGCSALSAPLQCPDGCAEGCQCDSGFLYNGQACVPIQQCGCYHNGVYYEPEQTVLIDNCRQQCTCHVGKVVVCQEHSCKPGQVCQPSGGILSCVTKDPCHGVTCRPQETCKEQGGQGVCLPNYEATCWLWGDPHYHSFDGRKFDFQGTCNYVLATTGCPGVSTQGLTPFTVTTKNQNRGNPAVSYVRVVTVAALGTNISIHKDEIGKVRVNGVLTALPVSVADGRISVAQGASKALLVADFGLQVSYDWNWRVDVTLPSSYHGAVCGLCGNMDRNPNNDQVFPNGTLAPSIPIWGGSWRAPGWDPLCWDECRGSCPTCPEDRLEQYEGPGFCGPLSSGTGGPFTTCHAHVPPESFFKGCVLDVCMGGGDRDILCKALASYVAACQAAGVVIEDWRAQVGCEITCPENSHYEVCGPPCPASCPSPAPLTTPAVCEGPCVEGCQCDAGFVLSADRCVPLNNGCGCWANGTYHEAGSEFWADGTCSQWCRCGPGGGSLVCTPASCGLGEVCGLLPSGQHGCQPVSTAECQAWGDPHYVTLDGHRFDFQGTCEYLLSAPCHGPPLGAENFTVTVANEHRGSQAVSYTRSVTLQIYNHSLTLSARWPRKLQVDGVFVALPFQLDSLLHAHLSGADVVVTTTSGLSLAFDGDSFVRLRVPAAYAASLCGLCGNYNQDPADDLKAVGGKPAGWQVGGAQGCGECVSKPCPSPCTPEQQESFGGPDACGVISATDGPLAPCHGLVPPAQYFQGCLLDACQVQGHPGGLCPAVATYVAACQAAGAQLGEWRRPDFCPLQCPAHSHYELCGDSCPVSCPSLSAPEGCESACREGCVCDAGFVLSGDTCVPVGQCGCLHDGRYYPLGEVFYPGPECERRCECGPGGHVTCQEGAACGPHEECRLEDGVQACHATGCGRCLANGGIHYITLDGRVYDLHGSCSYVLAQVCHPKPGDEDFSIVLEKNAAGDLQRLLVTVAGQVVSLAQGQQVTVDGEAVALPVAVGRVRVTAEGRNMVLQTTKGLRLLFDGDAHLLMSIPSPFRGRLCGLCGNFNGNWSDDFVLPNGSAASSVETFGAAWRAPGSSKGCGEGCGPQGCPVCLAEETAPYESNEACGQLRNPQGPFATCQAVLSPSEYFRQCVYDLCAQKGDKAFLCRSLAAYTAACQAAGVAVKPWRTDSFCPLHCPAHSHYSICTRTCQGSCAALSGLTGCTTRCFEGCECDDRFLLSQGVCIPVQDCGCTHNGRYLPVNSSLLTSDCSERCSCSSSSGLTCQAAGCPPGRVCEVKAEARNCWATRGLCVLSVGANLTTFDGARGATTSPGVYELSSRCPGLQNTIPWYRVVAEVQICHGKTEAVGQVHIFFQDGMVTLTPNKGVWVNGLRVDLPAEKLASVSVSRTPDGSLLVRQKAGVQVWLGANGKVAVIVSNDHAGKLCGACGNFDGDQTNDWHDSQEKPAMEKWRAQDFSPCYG

Results are given in words; binding and its absence hold for the method and conditions named. Some results given as binding are weak or reduced against the parent protein; the word gives no strength.

Here are results for two molecules from paper PMC10285406.

Regarding “IgGFc-binding protein (FCGBP) (from UniProt Q9Y6R7 24-5405)”, the binding result in assay [1] is reported as “binds”.

B1: calcium-activated chloride channel regulator 1 (CLCA1) (protein, UniProt A8K7I4 22-914)
chain: NSLIQLNNNGYEGIVVAIDPNVPEDETLIQQIKDMVTQASLYLLEATGKRFYFKNVAILIPETWKTKADYVRPKLETYKNADVLVAESTPPGNDEPYTEQMGNCGEKGERIHLTPDFIAGKKLAEYGPQGRAFVHEWAHLRWGVFDEYNNDEKFYLSNGRIQAVRCSAGITGTNVVKKCQGGSCYTKRCTFNKVTGLYEKGCEFVLQSRQTEKASIMFAQHVDSIVEFCTEQNHNKEAPNKQNQKCNLRSTWEVIRDSEDFKKTTPMTTQPPNPTFSLLQIGQRIVCLVLDKSGSMATGNRLNRLNQAGQLFLLQTVELGSWVGMVTFDSAAHVQNELIQINSGSDRDTLAKRLPAAASGGTSICSGLRSAFTVIRKKYPTDGSEIVLLTDGEDNTISGCFNEVKQSGAIIHTVALGPSAAQELEELSKMTGGLQTYASDQVQNNGLIDAFGALSSGNGAVSQRSIQLESKGLTLQNSQWMNGTVIVDSTVGKDTLFLITWTMQPPQILLWDPSGQKQGGFVVDKNTKMAYLQIPGIAKVGTWKYSLQASSQTLTLTVTSRASNATLPPITVTSKTNKDTSKFPSPLVVYANIRQGASPILRASVTALIESVNGKTVTLELLDNGAGADATKDDGVYSRYFTTYDTNGRYSVKVRALGGVNAARRRVIPQQSGALYIPGWIENDEIQWNPPRPEINKDDVQHKQVCFSRTSSGGSFVASDVPNAPIPDLFPPGQITDLKAEIHGGSLINLTWTAPGDDYDHGTAHKYIIRISTSILDLRDKFNESLQVNTTALIPKEANSEEVFLFKPENITFENGTDLFIAIQAVDKVDLKSEISNIARVSLFIPPQTPPETPSPDETSAPCPNIHINSTIPGIHILKIMWKWIGELQLSIA
Regarding B1, the binding result in assay [2] and in assay [1] was “binds” throughout.
